Laboratory results: the supplement of paper PMC3334620
Whole data set: some 33,000 sequences, median “E-score (-0.5 to 0.5)” near -8e-05, cut for the highest 2% near 0.23. This is one part of the list.

Each sequence was assayed against T1, Nrg2 (UniProt P38082) (assay: PBM E-score (8-mer binding enrichment) (E-score (-0.5 to 0.5)); higher = stronger / more preferred TF binding). Settings: protein concentration: 100 nM; construct: GST-full length.
T1 sequence: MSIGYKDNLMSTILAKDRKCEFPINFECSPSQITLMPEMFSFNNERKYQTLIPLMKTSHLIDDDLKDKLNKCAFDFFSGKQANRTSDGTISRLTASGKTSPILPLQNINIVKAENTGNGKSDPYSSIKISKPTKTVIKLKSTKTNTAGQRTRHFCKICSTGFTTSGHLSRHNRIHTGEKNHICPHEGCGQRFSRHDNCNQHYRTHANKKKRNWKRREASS
Procedure, shortened: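 E-scores (a modified Wilcoxon-Mann-Whitney statistic) were assigned by the Universal PBM Analysis Suite to every ungapped eight-base word pooled with its reverse complement. The input came from universal all-10-mer Agilent arrays made double-stranded by primer extension and probed with GST-tagged yeast transcription factors at about 100-200 nM. Fluorescent anti-GST detected bound protein, and masliner normalised the scans.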

| Sequence | PBM E-score |
| --- | --- |
| CCGTTTAA | 0.0881 |
| AGTGTCTC | 0.0365 |
| AATCCTCG | -0.00244 |
| ACAGACTC | -0.142 |
| GATGTTGC | 0.115 |
| ATATGGCA | 0.00508 |
| CACCCACG | 0.123 |
| GCTGCCAA | -0.122 |
| CACACAGG | 0.202 |
| AAATCGTA | 0.214 |
| GTGTGTGA | 0.0519 |
| ATGGCAAC | 0.112 |
| GAATGGTA | 0.133 |
| GTTCTTCA | 0.0896 |
| CACTGCAC | -0.0698 |
| AGTTCTTG | 0.137 |
| CTTTTTAC | -0.0531 |
| AAGATCGT | 0.0712 |
| ATGGTAAA | 0.16 |
| CGGAATAA | -0.075 |
| CAGGGTCG | 0.264 |
| AGGTTCCG | 0.0107 |
| AAAGATCC | 0.0534 |
| CTCTTTTA | -0.0622 |
| AGCCATAC | -0.0672 |

6 entries picked at random from those above, as already listed:

| Sequence | PBM E-score |
| --- | --- |
| AAATCGTA | 0.214 |
| GCTGCCAA | -0.122 |
| CACACAGG | 0.202 |
| AAAGATCC | 0.0534 |
| AGTTCTTG | 0.137 |
| ATGGCAAC | 0.112 |

Remaining list, next part.

| Sequence | PBM E-score |
| --- | --- |
| TGCACAAA | -0.123 |
| CCCGGATC | 0.0926 |
| ACTAGGGC | -0.0479 |
| AAGGGGGG | -0.4 |
| ATCCAAAG | 0.187 |
| CGCCGCCG | 0.0127 |
| CACAGCGC | 0.156 |
| GTCCTAAC | -0.0539 |
| CAATCGTA | 0.147 |
| GGAGGGCA | -0.194 |
| CGGTCTAG | -0.0124 |
| CAATTTCA | -0.0684 |
| AAAATACG | 0.0709 |
| GACTCTAC | -0.037 |
| ATTAACCG | 0.107 |
| ATGGATGC | 0.0323 |
| CAGTACTG | 0.0483 |
| TACTGGAA | -0.0181 |
| AAGTTAGG | 0.0699 |
| ACTCCATC | 0.097 |
| AGTGTCAG | 0.059 |
| CTTAGGGA | -0.228 |
| ACTCGTCA | 0.0272 |
| TTCGACAA | 0.139 |
| ACTTCCCC | -0.166 |

| Sequence | PBM E-score |
| --- | --- |
| ACGTGCAT | -0.117 |
| CTAGCACA | -0.19 |
| CGAGTAAC | 0.0845 |
| CCCCAACG | -0.0878 |
| GTGTATCA | 0.166 |
| GCTGCGGA | 0.0757 |
| GGACCCTA | 0.305 |
| ACAACAAG | 0.0395 |
| CAGCACAC | -0.208 |
| CCTGGACA | 0.0302 |
| GTGGTGAA | -0.0401 |
| TGCAACCA | 0.0707 |
| CTGCACCA | -0.0673 |
| CCAGGCAA | 0.0182 |
| CCTAGTAC | 0.0531 |
| AGCGAGAC | -0.164 |
| CTTTTGTA | 0.151 |
| ACGACGGG | -0.0412 |
| CTCATGCC | -0.0322 |
| CAGTAACC | 0.0421 |
| ATTCCCCA | 0.103 |
| AACTTTGT | 0.251 |
| CTTCTGGC | -0.0801 |
| GGTTATCA | -0.0196 |
| CACGGGCA | -0.102 |

| Sequence | PBM E-score |
| --- | --- |
| ATCACTTC | 0.0894 |
| AGACCCTC | 0.0175 |
| CCCTTAAC | -0.0789 |
| GGGGGACA | 0.00654 |
| CGCCTTAA | 0.01 |
| CGTGGAAG | 0.0767 |
| GGACCTAA | 0.133 |
| CATTCACG | -0.183 |
| GGTGTGGA | 0.0154 |
| AGAGGTCA | 0.0468 |
| CACGGGGC | -0.0105 |
| CGCCGTGA | -0.0232 |
| CACGCGTC | 0.0851 |
| GGGTAACA | -0.0596 |
| ATATAATA | 0.213 |
| CGCCATGC | -0.0442 |
| GAAATGAA | 0.29 |
| CAGAATGA | 0.0965 |
| AACCATTG | -0.0415 |
| ATCCTTGC | -0.0413 |
| AATTACCC | 0.0849 |
| CCAAAGCA | 0.119 |
| CCAGAACC | -0.0345 |
| GCTCTGCC | -0.161 |
| CCCTAGCA | -0.0573 |

| Sequence | PBM E-score |
| --- | --- |
| GGTTTGCA | 0.0429 |
| AGCTTGGG | 0.0188 |
| CTATAGAC | -0.0648 |
| GTGTAGAA | -0.191 |
| CGACGAAG | -0.0496 |
| ACTACCTA | -0.0145 |
| GGATTCCC | -0.124 |
| CATTGAGA | 0.0182 |
| GGGTTAAC | 0.0998 |
| CCAGGTCA | -0.276 |
| CAGCGTCA | -0.167 |
| AGCAAACA | 0.0834 |
| TGGCTCAA | -0.0784 |
| AATCTGAT | 0.118 |
| CCTCTTAC | -0.0717 |
| CGTTCAAA | 0.101 |
| AGTTCCTG | 0.0667 |
| CATTGCGA | 0.0343 |
| AGTCGACG | 0.225 |
| AGAGCACC | -0.0541 |
| GCCGTGAA | 0.0848 |
| TGGCGCAA | -0.0359 |
| ATTAACTC | 0.183 |
| GGTGTCTA | -0.154 |
| GGGTGAAA | -0.0047 |

| Sequence | PBM E-score |
| --- | --- |
| AGATTAAG | 0.0205 |
| AGGGTAGC | 0.181 |
| AGCCGAGC | 0.0355 |
| ATATCTCG | 0.0423 |
| CATGCGTC | -0.109 |
| CGGTATGA | 0.0729 |
| GAGCGTCA | -0.0373 |
| GAGCGAAC | -0.0967 |
| TCAATACA | 0.0827 |
| ATAACACC | 0.0784 |
| GTGTGCTA | -0.0679 |
| AGCGAGTG | 0.0308 |
| AATGAAAG | -0.027 |
| AAGAGTCA | -0.114 |
| CCTAGAGG | -0.19 |
| GTTGACCA | 0.179 |
| AAGTTACT | -0.0227 |
| CGTACGGA | 0.0835 |
| ACTATACC | 0.122 |
| ACCCGGGC | -0.0713 |
| ATAAGCAG | -0.0137 |
| ATCCTCGC | 0.0292 |
| CGCGCGCA | 0.296 |
| GCACGTCC | 0.0773 |
| AACGGGAC | -0.00871 |

| Sequence | PBM E-score |
| --- | --- |
| TGTTCTAA | 0.133 |
| CACCCCGA | -0.0616 |
| ACGAGAAG | -0.0995 |
| GTAGGATA | 0.0533 |
| CTAGTACC | -0.121 |
| ATGAAGTC | -0.0277 |
| TAAGCATA | -0.11 |
| AATCCACG | 0.0453 |
| AAATGGTT | -0.0104 |
| AATATAAC | 0.167 |
| CGCCCGAC | 0.101 |
| ATGGGCCA | 0.0231 |
| ACACGAGA | -0.0205 |
| CAGTCCAA | -0.00577 |
| ACCGAAAG | -0.145 |
| CATACTCG | 0.14 |
| AGACAGCA | 0.0249 |
| TACTACAA | 0.134 |
| AAGTGTTA | 0.0809 |
| ACATAAAC | 0.0128 |
| AGCGGACA | -0.126 |
| ATTAACGC | -0.0843 |
